Earlier results as cited in patent publication US8470830B2, “5-(heterocyclyl)alkyl-N-(arylsulfonyl)indole compounds and their use as 5-HT6 ligands” (Suven Life Sciences Limited, priority 2007, dated 2013).
For at least one compound, name, drawing or mass did not settle the structure.

Test system: 5-HT6 receptor
Conditions: literature; cited from earlier work

CN1CCN(C2=Nc3cc(Cl)ccc3Nc3ccccc32)CC1 [clozapine]
affinity for the 5-HT6 receptor: high affinity
